Reference: paper PMC12203675
Numbering of substitutions follows the chain as printed. No constants are given. Whether binding was seen depends on the method and setting. Binding seen in cells or lysates may run through a third protein. Some entries that bind do so weakly or less than the wild type. For part of these data: Sequences can lack the tags named with a protein.

The chains behind the UniProt entries cited, without tags or fusion partners.
UniProt P35700: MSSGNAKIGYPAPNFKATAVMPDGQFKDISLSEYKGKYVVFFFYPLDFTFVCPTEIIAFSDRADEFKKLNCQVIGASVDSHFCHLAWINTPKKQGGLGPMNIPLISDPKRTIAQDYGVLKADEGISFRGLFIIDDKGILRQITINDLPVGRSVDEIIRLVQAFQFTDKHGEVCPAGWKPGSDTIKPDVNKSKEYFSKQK

B1: GFP-PRDX1 (peroxiredoxin 1) (protein, UniProt Q06830 1-199)
chain: MSSGNAKIGHPAPNFKATAVMPDGQFKDISLSDYKGKYVVFFFYPLDFTFVCPTEIIAFSDRAEEFKKLNCQVIGASVDSHFCHLAWVNTPKKQGGLGPMNIPLVSDPKRTIAQDYGVLKADEGISFRGLFIIDDKGILRQITVNDLPVGRSVDETLRLVQAFQFTDKHGEVCPAGWKPGSDTIKPDVQKSKEYFSKQK
B2: PRDX1 in bone marrow-derived macrophages (protein, UniProt P35700 1-199)
chain: B1 chain with H10Y, D33E, E64D, V88I, V105I, V144I, T156I, L157I, Q189N

Experiments:
[1] = molecular target: T1, FLAG-OTUD1 (ovarian tumor deubiquitinase 1) (UniProt Q5VV17); test: co-IP; HEK-293T cells co-transfected with the plasmids; lysates with antibody overnight at 4°C, Protein A + G Agarose 4 h at 4°C, immunoblot; in Figure 4G OTUD1 precipitated with an anti-FLAG antibody
T1 sequence: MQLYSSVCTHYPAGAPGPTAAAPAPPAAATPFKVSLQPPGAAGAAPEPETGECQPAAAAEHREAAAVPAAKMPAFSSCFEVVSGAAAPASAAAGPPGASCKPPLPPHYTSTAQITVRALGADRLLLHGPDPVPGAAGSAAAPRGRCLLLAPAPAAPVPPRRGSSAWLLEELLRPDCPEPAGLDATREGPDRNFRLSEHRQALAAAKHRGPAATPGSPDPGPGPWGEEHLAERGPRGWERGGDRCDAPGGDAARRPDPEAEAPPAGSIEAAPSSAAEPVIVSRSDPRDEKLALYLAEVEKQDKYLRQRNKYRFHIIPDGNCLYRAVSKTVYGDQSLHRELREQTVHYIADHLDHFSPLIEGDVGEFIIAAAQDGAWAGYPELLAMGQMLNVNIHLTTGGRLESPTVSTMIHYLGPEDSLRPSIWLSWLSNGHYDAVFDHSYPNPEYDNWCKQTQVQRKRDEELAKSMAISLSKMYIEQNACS

FLAG-OTUD1(C320S) = molecular target: T2, FLAG-OTUD1(C320S) (UniProt Q5VV17); test: as above
T2 sequence: T1 sequence with C320S

[2] = molecular target: T3, OTUD1 in bone marrow-derived macrophages (mouse (endogenous in BMDMs)) (UniProt Q9CUB6); test: co-IP; BMDM lysates with antibody overnight at 4°C, Protein A + G Agarose 4 h at 4°C, immunoblot
T3 sequence: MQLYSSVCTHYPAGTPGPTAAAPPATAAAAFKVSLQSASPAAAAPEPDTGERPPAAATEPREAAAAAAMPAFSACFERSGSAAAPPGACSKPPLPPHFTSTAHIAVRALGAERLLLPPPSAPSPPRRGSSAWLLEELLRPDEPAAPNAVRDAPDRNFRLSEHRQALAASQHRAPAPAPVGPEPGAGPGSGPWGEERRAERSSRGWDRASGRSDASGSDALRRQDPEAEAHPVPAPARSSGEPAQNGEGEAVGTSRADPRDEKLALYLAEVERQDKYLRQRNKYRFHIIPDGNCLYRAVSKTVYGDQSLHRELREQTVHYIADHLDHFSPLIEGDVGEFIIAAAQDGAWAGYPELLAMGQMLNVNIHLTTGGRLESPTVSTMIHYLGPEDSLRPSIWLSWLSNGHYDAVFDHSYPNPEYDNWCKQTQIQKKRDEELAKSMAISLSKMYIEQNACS

Row | Binder | binding [1] | binding (FLAG-OTUD1(C320S)) | binding [2]
1 | B1 | binds | binds | 
2 | B2 |  |  | binds
